Laboratory results: PubChem BioAssay AID504808 (Drosophila RNAi Screening Center, 2011)
The screen tested about 21,000 reagents; this is a random part of those with a known target gene and a result. Of all reagents, 18 (0.084%) got an active call. 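Raw counts without plate normalisation, one of two replicates; the ratio scores behind the calls were not deposited.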 Reagents against one gene are numbered here. Names joined by + are all predicted targets of the reagent. Not stated in the record: the amount of reagent, the time to read-out.

Purpose: 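Genes whose loss lifts activity of an E2F-responsive reporter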 (primary screen)
Cells: Drosophila S2 cells
Reagent: long dsRNA against Drosophila genes
Measured: 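Firefly luciferase driven by E2F sites, normalised to Renilla luciferase on the same minimal promoter, measured by plate reader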
Scale: E2F firefly: higher = more E2F reporter activity; Renilla normaliser: higher = more normaliser reporter signal
Rule for the call: 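Called active if the normalised E2F reporter went up by over 50%; the cutoff is arbitrary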

predicted target | reagent | E2F firefly, rep 1 | Renilla normaliser, rep 1 | outcome
CG34324 (GeneID 32302) | 1 | 1.28e5 | 6684 | inactive
CG8209 (GeneID 38888) | 1 | 90261 | 3665 | inactive
Sidpn (GeneID 35168) | 1 | 79483 | 3455 | inactive
CG1314 (GeneID 33066) | 1 | 1.64e5 | 5720 | inactive
CG32204 (GeneID 317913) | 1 | 72221 | 2984 | inactive
CG46441 (GeneID 42423) | 1 | 63505 | 3665 | inactive
Nil (GeneID 43185) | 1 | 98276 | 5175 | inactive
lobo (GeneID 4379864) | 1 | 97020 | 4647 | inactive
lobo (GeneID 4379864) | 2 | 1.06e5 | 6192 | inactive
AOX1 (GeneID 41894) | 1 | 79964 | 3975 | inactive
CG14421 (GeneID 31285) | 1 | 1.33e5 | 5503 | inactive
CG5509 (GeneID 41539) | 1 | 1.47e5 | 6563 | inactive
Meltrin (GeneID 3772109) | 1 | 64586 | 3645 | inactive
Ih (GeneID 36589) | 1 | 2852 | 186 | inactive
Marcal1 (GeneID 33709) | 1 | 1.41e5 | 5127 | inactive
CG8079 (GeneID 36689) | 1 | 83143 | 3737 | inactive
CG8079 (GeneID 36689) | 2 | 1.06e5 | 3754 | inactive
AP-2sigma (GeneID 42525) | 1 | 1.23e5 | 7609 | inactive
bbg (GeneID 39583) | 1 | 1.93e5 | 8966 | inactive
bbg (GeneID 39583) | 2 | 1.69e5 | 7249 | inactive
CG11997 (GeneID 41093) | 1 | 1.45e5 | 6213 | inactive
Saf-B (GeneID 42958) | 1 | 74148 | 3873 | inactive
CG4596 (GeneID 41312) | 1 | 1.38e5 | 6077 | inactive
CG2129 (GeneID 31741) | 1 | 7694 | 780 | inactive
Gr64f (GeneID 117477) | 1 | 99703 | 4064 | inactive
CG42537 (GeneID 8674074) | 1 | 1.47e5 | 7322 | inactive
CG11298 (GeneID 37553) | 1 | 90937 | 3713 | inactive
CG34204 (GeneID 5740630) | 1 | 1.19e5 | 4954 | inactive
ScsbetaA (GeneID 41067) | 1 | 77712 | 3241 | inactive
Mur82C (GeneID 40574) | 1 | 90800 | 3997 | inactive
Mur82C (GeneID 40574) | 2 | 1.67e5 | 7487 | inactive
Prat (GeneID 40935) | 1 | 82377 | 3467 | inactive
Fadd (GeneID 42594) | 1 | 1.37e5 | 7990 | inactive
CG13674 (GeneID 38921) | 1 | 87938 | 3201 | inactive
nkd (GeneID 44843) | 1 | 1.25e5 | 5966 | inactive
IntS6 (GeneID 31496) | 1 | 10763 | 868 | inactive
bsk (GeneID 44801) | 1 | 77376 | 3315 | inactive
CG7025 (GeneID 34042) | 1 | 1.55e5 | 5090 | inactive
CG3748 (GeneID 34252) | 1 | 1.58e5 | 5274 | inactive
IntS10 (GeneID 38444) | 1 | 1.02e5 | 4107 | inactive
Ype (GeneID 32295) | 1 | 8295 | 808 | inactive
Sfp38D (GeneID 8673971) | 1 | 1.19e5 | 5193 | inactive
CG14711 + Zaf1 | 1 | 1.59e5 | 7328 | inactive
CG17134 (GeneID 34494) | 1 | 1.63e5 | 5477 | inactive
Mnn1 (GeneID 33991) | 1 | 1.60e5 | 4990 | inactive
Cpr78Ca (GeneID 40352) | 1 | 1.33e5 | 6017 | inactive
CG4390 (GeneID 42396) | 1 | 79755 | 3835 | inactive
CG15561 (GeneID 43692) | 1 | 99950 | 5644 | inactive
Frmd5 (GeneID 34398) | 1 | 1.59e5 | 5273 | inactive

Continued, starting with the last 6 of the part before.
predicted target | reagent | E2F firefly, rep 1 | Renilla normaliser, rep 1 | outcome
CG17134 (GeneID 34494) | 1 | 1.63e5 | 5477 | inactive
Mnn1 (GeneID 33991) | 1 | 1.60e5 | 4990 | inactive
Cpr78Ca (GeneID 40352) | 1 | 1.33e5 | 6017 | inactive
CG4390 (GeneID 42396) | 1 | 79755 | 3835 | inactive
CG15561 (GeneID 43692) | 1 | 99950 | 5644 | inactive
Frmd5 (GeneID 34398) | 1 | 1.59e5 | 5273 | inactive
Tango9 (GeneID 41450) | 1 | 65834 | 3207 | inactive
CG3430 (GeneID 33976) | 1 | 89947 | 4144 | inactive
CG15395 (GeneID 33447) | 1 | 1.55e5 | 5901 | inactive
CG13305 (GeneID 38992) | 1 | 1.00e5 | 3786 | inactive
CG10465 (GeneID 35488) | 1 | 1.10e5 | 4713 | inactive
ru (GeneID 44856) | 1 | 87693 | 4020 | inactive
Cpr49Ah (GeneID 36354) | 1 | 1.13e5 | 5054 | inactive
Pif2 (GeneID 170876) | 1 | 1.37e5 | 6650 | inactive
heph (GeneID 48571) | 1 | 91444 | 2319 | inactive
heph (GeneID 48571) | 2 | 66421 | 2532 | inactive
heph (GeneID 48571) | 3 | 1.05e5 | 6123 | inactive
heph (GeneID 48571) | 4 | 67140 | 4476 | inactive
SLO2 (GeneID 5740325) | 1 | 99216 | 3652 | inactive
SLO2 (GeneID 5740325) | 2 | 1.43e5 | 5167 | inactive
SLO2 (GeneID 5740325) | 3 | 1.48e5 | 4582 | inactive
SLO2 (GeneID 5740325) | 4 | 1.45e5 | 4347 | inactive
SLO2 (GeneID 5740325) | 5 | 1.07e5 | 4468 | inactive
CG34217 (GeneID 5740254) | 1 | 1.27e5 | 6274 | inactive
CG9331 (GeneID 35347) | 1 | 78668 | 2884 | inactive
ATP8 (retired record) (GeneID 192468) | 1 | 1.39e5 | 6650 | inactive
RpS3A (GeneID 43768) | 1 | 34473 | 4145 | inactive
rumpel (GeneID 31674) | 1 | 1.15e5 | 6026 | inactive
CG2656 (GeneID 40857) | 1 | 70753 | 3866 | inactive
CG7218 (GeneID 42165) | 1 | 75547 | 3060 | inactive
CG14115 (GeneID 39487) | 1 | 1.26e5 | 8503 | inactive
CG7102 (GeneID 34079) | 1 | 81721 | 3238 | inactive
CG7102 (GeneID 34079) | 2 | 1.36e5 | 4895 | inactive
nej (GeneID 43856) | 1 | 42387 | 3645 | inactive
nej (GeneID 43856) | 2 | 4762 | 672 | inactive
CG33543 (GeneID 3346207) | 1 | 1.75e5 | 6005 | inactive
CG33543 (GeneID 3346207) | 2 | 1.65e5 | 5348 | inactive
RpS23 (GeneID 36576) | 1 | 2599 | 195 | inactive
Cdk8 (GeneID 39157) | 1 | 80211 | 3396 | inactive
pths (GeneID 35379) | 1 | 86783 | 3949 | inactive
Camta (GeneID 35974) | 1 | 1.35e5 | 4474 | inactive
Camta (GeneID 35974) | 2 | 1.59e5 | 4922 | inactive
Camta (GeneID 35974) | 3 | 2756 | 217 | inactive
lili (GeneID 42956) | 1 | 70996 | 3591 | inactive
CG16974 (GeneID 34713) | 1 | 90992 | 3520 | inactive
FucTB (GeneID 34260) | 1 | 1.39e5 | 5187 | inactive
CG12617 (GeneID 50470) | 1 | 1.09e5 | 4481 | inactive
CG1552 (GeneID 32035) | 1 | 1.17e5 | 5803 | inactive
Idgf6 (GeneID 36868) | 1 | 75280 | 3283 | inactive
CG10147 (GeneID 38733) | 1 | 1.05e5 | 4044 | inactive
CG32369 (GeneID 38873) | 1 | 90719 | 3712 | inactive
CG32369 (GeneID 38873) | 2 | 63567 | 3157 | inactive
Ggamma30A (GeneID 45234) | 1 | 1.46e5 | 5606 | inactive
Ggamma30A (GeneID 45234) | 2 | 1.48e5 | 4722 | inactive
Rbcn-3A (GeneID 31557) | 1 | 80232 | 4437 | inactive
GluRS-m (GeneID 39828) | 1 | 1.68e5 | 6914 | inactive
OSCP1 (GeneID 36300) | 1 | 89897 | 3896 | inactive
lin (GeneID 45325) | 1 | 1.38e5 | 4860 | inactive
rdgB (GeneID 32340) | 1 | 50245 | 3743 | inactive
CG10799 (GeneID 36472) | 1 | 97999 | 3965 | inactive
CG32266 (GeneID 317945) | 1 | 1.22e5 | 4267 | inactive
Syt4 (GeneID 40876) | 1 | 1.28e5 | 6663 | inactive
Dark (GeneID 36914) | 1 | 78137 | 3275 | inactive
step (GeneID 35425) | 1 | 1.08e5 | 4922 | inactive
step (GeneID 35425) | 2 | 1.06e5 | 3727 | inactive
